The target of one assay is Strep-PII (UniProt Q55247). The experiment in a line: pull-down.
For assay [1], the target named is T1, His6-tagged 2,3-bisphosphoglycerate-independent phosphoglycerate mutase (PGAM, Slr1945) (Synechocystis sp. PCC 6803) (UniProt P74507).
T1 sequence: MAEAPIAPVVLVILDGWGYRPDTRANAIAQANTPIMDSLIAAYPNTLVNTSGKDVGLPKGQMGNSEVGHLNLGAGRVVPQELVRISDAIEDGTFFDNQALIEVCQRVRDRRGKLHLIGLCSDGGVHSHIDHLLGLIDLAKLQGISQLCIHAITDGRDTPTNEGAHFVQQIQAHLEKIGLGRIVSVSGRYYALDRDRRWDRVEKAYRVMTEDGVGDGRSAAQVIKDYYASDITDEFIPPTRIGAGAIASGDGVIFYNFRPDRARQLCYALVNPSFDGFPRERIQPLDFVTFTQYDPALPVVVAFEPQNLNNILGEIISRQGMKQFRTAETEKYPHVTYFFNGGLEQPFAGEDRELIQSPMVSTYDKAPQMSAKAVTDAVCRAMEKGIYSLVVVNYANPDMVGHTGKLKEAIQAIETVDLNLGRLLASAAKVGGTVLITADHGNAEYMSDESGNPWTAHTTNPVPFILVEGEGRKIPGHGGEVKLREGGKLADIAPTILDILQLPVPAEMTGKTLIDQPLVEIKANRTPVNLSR
The experiment in a line: BLI. A general note: BLI is a label-free optical method that tracks binding on a fibre tip over time.

By UniProt entry, the sequences of proteins in these tests, tags left out.
UniProt Q55247, whole entry: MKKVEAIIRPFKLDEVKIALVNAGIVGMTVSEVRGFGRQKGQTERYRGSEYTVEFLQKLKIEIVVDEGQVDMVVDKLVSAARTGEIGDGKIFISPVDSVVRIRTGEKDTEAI

Assay [2] concerns the target C-terminally His8-tagged PII (UniProt Q55247). The assay can be described thus: BLI.

Results are given in words; binding and its absence hold for the method and conditions named. Some results given as binding are weak or reduced against the parent protein; the word gives no strength. Sequences can lack the tags named with a protein.

B1: His6-PirC (Sll0944), 112 amino acid version starting at Met 53 (protein, UniProt P77971 53-164)
chain: MSQILDPIPNNQPSALFCCYVNATNQIQVARITNVPNWYFERVVFPGQRLVFEAVPSAQLEIHTGMMASSIISDTIPCEQLSIDPDGLAAGGFISPEKEHESEDMTSQSLVA
In the case of B1, the binding entry in the assay with Strep-PII was “binds”.

B2: Strep-tagged PirC (Sll0944), 112 amino acid version starting at Met 53 (protein, UniProt P77971 53-164)
chain: MSQILDPIPNNQPSALFCCYVNATNQIQVARITNVPNWYFERVVFPGQRLVFEAVPSAQLEIHTGMMASSIISDTIPCEQLSIDPDGLAAGGFISPEKEHESEDMTSQSLVA
Take B2: the binding result is “binds” in assay [1] and “binds weakly” in assay [2].

(Values after publication doi:10.1101/2020.09.11.292599.)
